Measurements as given in PubChem BioAssay AID1956 (SRMLSC, 2009).
This is one part of the list.

experiment: compounds boosting herpes simplex virus growth – fold increase, host cell viability (AID 1956); details: HSV replication augmentation in cells; fold increase: measured here: primary screen fold increase 10 uM, at 10 µM, stronger effect = higher value; viability: measured here: host cell viability series, at 25 µM, stronger effect = lower value; also: tested in PC3 cells

Row | Structure (SMILES) | fold increase | viability [%]
1 | O=C(OC1CN2CCC1CC2)C1c2ccccc2C=Cc2ccccc21 (stereo unspecified) | 0.8 | –
2 | COc1ccc(C(=O)NCC2(N3CCOCC3)CCCCC2)cc1OC | 1.02 | –
3 | c1ccc(CN2CCC(Nc3ccccc3)CC2)cc1 | 0.91 | –
4 | N#Cc1ccc(C(=O)NCC2(N3CCCCC3)CCCCC2)cc1 | 0.82 | –
5 | CCN1CCC(Nc2cccc(F)c2)CC1 | 1.04 | –
6 | CN(C)c1ccc(C(=O)NCC2(N3CCCCC3)CCCCC2)cc1 | 0.92 | –
7 | Fc1ccccc1NC1CCN(Cc2ccccc2)CC1 | 0.87 | –
8 | COc1cc(OC)cc(C(=O)NCC2(N3CCOCC3)CCCCC2)c1 | 1.01 | –
9 | CCC(CO)(C(=O)OC1CN2CCC1CC2)c1ccccc1 (stereo unspecified) | 1 | –
10 | CCCOc1ccc(C)cc1CN(CCCl)CCCl | 1.04 | –
11 | CCOc1ncccc1C(=O)NCC1(N2CCOCC2)CCCCC1 | 1.42 | 95.6
12 | CC(C)(C)OC(=O)N1CCC(Nc2ccccc2)CC1 | 1.02 | –
13 | O=C(NCC1(N2CCOCC2)CCCCC1)c1cc2ccccc2o1 | 0.913 | –
14 | N#CC1(Nc2ccccc2)CCN(Cc2ccccc2)CC1 | 0.97 | –
15 | O=C(OC1CN2CCC1CC2)C1c2ccccc2Oc2ccccc21 (stereo unspecified) | 1.1 | –
16 | CCOC(=O)N1CCC(Nc2ccc(OC)cc2)CC1 | 1.01 | –
17 | COc1ccc(C(=O)NCC2(N3CCCCC3)CCCCC2)c(OC)c1OC | 0.94 | –
18 | Cc1ccc(OCC(C)C)c(CN(CCCl)CCCl)c1 | 1.02 | –
19 | CCOc1ccc(C)cc1CN(CCCl)CCCl | 1.13 | –
20 | COc1ccc(NC2CCN(CCc3ccccc3)CC2)c(OC)c1 | 0.73 | –
21 | O=C(NCC1(N2CCOCC2)CCCCC1)c1cc(=O)[nH]c2ccccc12 | 0.98 | –
22 | COc1ccc(NC2CCN(C(=O)OC(C)(C)C)CC2)cc1 | 0.97 | –
23 | CN1CCN(CCOC(=O)C(O)(c2ccccc2)c2ccccc2)CC1 | 0.9 | –
24 | N#CC1(Nc2ccccc2)CCN(CCc2ccccc2)CC1 | 0.98 | –
25 | O=C(NCC1(N2CCCCC2)CCCCC1)c1cccc([N+](=O)[O-])c1 | 1.5 | 75.3
26 | CN1CCC(Nc2cccc(F)c2)CC1 | 1.08 | –
27 | CC(C)c1ccc(NC2CCN(C(=O)OC(C)(C)C)CC2)cc1 | 0.91 | –
28 | CN(C)c1cccc(C(=O)NCC2(N3CCCCC3)CCCCC2)c1 | 0.97 | –
29 | COc1ccc(CN(CCCl)CCCl)cc1Cl | 0.84 | –
